Results from patent publication US20230025525A1 (HELMHOLTZ ZENTRUM M NCHEN DEUTSCHES FORSCHUNGSZENTRUM F R …, published 2023).
These are yes or no findings as the source states them, for the method shown. Some results given as binding are weak or reduced against the parent protein; the word gives no strength.

B1: EIG-B 18B2 (antibody, V domains shown)
VH: QVQLKESGPGLVQPSQTLSLTCTVSGFSLTSYHISWVRQPPGKGLEWIAAISSGGDTYYNSLLKSRLSISRDTSKSQVFLKMNRLQTEDTAFYFCNGESYWGQGTLVTVSS
VL: DVVLTQSPATLSVTPGERISLSCRASENIDTYLHWFQQKPNESPRLLIKFASQSISGIPSRFSGSGSGRDFTLSINGVELEDLSIYYCQQGNILPYTFGAGTRLELKR
notes: Rat monoclonal antibody from a hybridoma; Only the variable regions are tied to the clone by name; also called EIG-B 1862
B2: EIG-B 10D9 (antibody, V domains shown)
VH: QVQLKESGPGLVQPSQTLSLTCTVSGFSLTSYHISWVRQPPGKGLEWIAAISSGGDTYYNSLLKSRLSISRDTSKSQVFLKMNRLQTEDTAFYFCNGESYWGQGTLVTVSS
VL: DVVLTQSPATLSVTPGERISLSCRASENIDTYLHWFQQKPNESPRLLIKFASQSISGIPSRFSGSGSGTDFTLSINGVELEDLSIYYCQQGNILPYTFGAGTKLELKR
notes: Rat monoclonal antibody from a hybridoma; Only the variable regions are tied to the clone by name; The constant regions are not tied to the clone
B3: EIG-D 26D7 (antibody, V domains shown)
VH: QVQLQQPGADLVRPGSSVKLSCKASGYSFTSYWMDWVKQRPGQGLEWIGNIYPSDGETHYNQKFKDKATLTVDKSSSTAYMQLSSLTSEDSAVYYCARLYSEYGSWGQGTTLTVSS
VL: DIVMTQSPSSLTVTTGEKVTMSCKSSQSLLNSGNQKNYLTWYQQRPGQPPKLLIYWASTRDSGVPDRFTGSGSGTDFTLTISSVQAADLAVYYCQNDYSYPLTFGAGTKLELKR
notes: Mouse monoclonal antibody from a hybridoma; Only the variable regions are tied to the clone by name; The constant regions are not tied to the clone

What follows are binders tested against T1, mouse IGFR-like receptor (mouse) (UniProt A2AFS3) (assay: Western blot, Min6 cell lysate (weak)).
T1 sequence (looked up): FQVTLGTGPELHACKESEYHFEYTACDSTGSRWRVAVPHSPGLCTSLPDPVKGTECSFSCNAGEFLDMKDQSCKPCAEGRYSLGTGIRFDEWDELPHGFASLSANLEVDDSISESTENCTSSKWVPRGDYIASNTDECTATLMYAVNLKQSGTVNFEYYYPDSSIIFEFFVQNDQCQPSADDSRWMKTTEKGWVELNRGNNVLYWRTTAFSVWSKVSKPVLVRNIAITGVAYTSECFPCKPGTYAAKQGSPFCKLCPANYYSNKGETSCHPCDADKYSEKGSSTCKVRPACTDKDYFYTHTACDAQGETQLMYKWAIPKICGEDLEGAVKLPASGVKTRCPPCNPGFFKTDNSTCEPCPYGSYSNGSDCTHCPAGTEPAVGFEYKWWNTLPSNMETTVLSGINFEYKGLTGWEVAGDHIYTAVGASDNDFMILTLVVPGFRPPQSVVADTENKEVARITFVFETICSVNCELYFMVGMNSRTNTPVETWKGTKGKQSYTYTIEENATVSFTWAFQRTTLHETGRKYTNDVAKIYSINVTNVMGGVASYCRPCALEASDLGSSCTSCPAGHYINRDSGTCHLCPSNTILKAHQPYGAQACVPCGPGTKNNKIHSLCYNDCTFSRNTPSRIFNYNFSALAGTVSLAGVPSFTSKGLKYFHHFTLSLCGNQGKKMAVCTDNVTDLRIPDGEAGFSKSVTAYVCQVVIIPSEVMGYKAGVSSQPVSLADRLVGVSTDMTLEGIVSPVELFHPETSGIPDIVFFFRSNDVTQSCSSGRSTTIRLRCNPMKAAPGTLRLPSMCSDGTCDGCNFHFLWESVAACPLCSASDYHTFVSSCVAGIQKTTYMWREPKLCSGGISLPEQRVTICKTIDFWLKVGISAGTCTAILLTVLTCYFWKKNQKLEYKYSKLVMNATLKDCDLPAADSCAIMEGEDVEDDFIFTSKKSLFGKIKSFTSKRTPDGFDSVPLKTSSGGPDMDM

binding, binds:
B1
B2
B3
